From paper PMC10985112
No constants are given. Whether binding was seen depends on the method and setting. Binding seen in cells or lysates may run through a third protein. Some entries that bind do so weakly or less than the wild type.

The chains behind the UniProt entries cited, without tags or fusion partners.
UniProt Q4JK59: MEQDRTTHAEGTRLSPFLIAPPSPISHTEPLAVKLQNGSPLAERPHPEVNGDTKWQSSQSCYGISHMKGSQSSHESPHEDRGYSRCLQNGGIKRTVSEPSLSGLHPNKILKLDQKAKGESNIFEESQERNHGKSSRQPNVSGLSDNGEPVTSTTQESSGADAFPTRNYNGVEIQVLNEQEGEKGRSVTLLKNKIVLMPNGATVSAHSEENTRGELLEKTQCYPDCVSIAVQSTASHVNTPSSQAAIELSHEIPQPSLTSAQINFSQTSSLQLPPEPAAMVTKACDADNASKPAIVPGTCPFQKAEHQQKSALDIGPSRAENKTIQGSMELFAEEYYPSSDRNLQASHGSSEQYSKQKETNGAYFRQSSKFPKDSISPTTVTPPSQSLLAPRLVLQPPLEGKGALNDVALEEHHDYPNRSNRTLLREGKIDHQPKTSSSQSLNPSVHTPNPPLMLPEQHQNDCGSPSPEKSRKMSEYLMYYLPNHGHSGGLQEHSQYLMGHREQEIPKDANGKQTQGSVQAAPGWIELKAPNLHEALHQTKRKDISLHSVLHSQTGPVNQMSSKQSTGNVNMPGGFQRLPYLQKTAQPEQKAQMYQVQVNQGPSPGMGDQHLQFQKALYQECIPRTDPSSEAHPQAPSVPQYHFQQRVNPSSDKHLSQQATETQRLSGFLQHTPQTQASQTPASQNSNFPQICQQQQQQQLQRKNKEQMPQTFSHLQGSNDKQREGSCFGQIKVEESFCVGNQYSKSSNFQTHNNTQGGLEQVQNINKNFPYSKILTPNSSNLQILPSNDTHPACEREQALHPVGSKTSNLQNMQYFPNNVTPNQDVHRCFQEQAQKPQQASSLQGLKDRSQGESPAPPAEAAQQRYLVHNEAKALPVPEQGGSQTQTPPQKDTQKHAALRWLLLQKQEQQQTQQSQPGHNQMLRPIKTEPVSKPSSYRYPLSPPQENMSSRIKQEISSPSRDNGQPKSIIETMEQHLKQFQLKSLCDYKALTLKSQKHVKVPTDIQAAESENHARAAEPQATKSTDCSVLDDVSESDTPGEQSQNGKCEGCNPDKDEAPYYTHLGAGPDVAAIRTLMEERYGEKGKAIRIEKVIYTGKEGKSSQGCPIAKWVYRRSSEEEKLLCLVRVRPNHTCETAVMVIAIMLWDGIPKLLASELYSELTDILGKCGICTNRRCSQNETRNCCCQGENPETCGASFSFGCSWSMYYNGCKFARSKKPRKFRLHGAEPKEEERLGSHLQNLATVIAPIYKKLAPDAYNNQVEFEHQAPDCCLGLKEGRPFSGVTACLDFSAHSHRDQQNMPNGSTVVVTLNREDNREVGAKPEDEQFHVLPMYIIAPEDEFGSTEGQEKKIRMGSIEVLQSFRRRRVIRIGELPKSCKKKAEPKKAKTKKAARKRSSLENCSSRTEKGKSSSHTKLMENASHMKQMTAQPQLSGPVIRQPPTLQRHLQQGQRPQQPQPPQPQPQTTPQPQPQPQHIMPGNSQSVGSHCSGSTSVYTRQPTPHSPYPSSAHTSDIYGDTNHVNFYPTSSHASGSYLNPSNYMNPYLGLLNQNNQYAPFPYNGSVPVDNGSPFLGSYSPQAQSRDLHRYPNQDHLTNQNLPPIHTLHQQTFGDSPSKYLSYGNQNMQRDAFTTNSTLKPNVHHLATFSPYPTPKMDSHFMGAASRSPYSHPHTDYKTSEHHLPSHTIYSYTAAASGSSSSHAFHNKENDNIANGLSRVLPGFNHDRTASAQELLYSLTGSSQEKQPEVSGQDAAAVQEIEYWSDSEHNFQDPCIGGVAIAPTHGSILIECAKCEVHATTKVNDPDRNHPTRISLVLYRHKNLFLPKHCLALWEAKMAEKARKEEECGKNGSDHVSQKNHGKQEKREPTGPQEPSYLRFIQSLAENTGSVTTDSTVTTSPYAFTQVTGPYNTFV
UniProt P53566: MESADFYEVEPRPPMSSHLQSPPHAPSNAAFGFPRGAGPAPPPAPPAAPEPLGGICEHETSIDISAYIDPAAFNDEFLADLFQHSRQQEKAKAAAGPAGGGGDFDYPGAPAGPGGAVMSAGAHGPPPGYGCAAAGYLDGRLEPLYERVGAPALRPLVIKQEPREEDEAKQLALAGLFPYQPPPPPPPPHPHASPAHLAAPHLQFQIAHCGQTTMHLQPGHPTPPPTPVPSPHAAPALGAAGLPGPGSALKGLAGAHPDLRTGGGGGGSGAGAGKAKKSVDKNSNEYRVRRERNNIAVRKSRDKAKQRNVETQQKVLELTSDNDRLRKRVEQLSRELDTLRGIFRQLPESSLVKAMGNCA

Biological target: Ten-eleven translocation (TET) 2 (mouse (endogenous in eWAT adipocytes of C57BL/6J mice)) (UniProt Q4JK59)
Experiment: co-IP; endogenous proteins in eWAT adipocytes from 8 week-old ND-fed C57BL/6J mice; Pierce Crosslink Magnetic IP/Co-IP Kit; immunoprecipitation with 10 μg of anti-TET2, anti-C/EBPα or rabbit IgG antibody; immunoprecipitates and input analysed by Western blot

binding: binds
Substance: C/EBPα (from UniProt P53566 1-359)
